The values below come from PubChem BioAssay AID196 (DTP/NCI, 2004).

This assay concerns BDF1 mice, intracerebral B16 melanoma, median survival T/C. The assay can be described thus: NCI In Vivo Anticancer Drug Screen. Data for tumor model B16 Melanoma (intracerebral) in B6D2F1 (BDF1) mice. Particulars: T/C endpoint: median survival time, higher T/C = longer survival. The protocol:
The antitumor activity of compounds was measured in mice bearing transplantable tumors. Survival or tumor size were measured and the results are expressed as the measurement made in the treated group (T) divided by the measurement made in the vehicle treated control group (C). The tumor model used in this assay is B16 Melanoma (intracerebral) in B6D2F1 (BDF1) mice

Setting [1] is: dose: 100.0 mg/kg/injection, schedule: Q04DX003 (ip), vehicle: Klucel (hydroxypropylcellulose) (HPC).
Setting [2] is: dose: 90.0 mg/kg/injection, schedule: Q01DX001 (ip), vehicle: Klucel (hydroxypropylcellulose) (HPC).
[3] abbreviates: dose: 135.0 mg/kg/injection, schedule: Q01DX001 (ip), vehicle: Klucel (hydroxypropylcellulose) (HPC).

The list is a part of this screen's results and no random one: it is rich in T/C values a quarter to a half above the control, in often repeated tests (any T/C) and in doses without a T/C. Further doses and runs are listed elsewhere. T/C: endpoint of the treated group in % of that of the vehicle group. Some doses have a count of surviving animals in place of a T/C: the source files T/C as zero there, which appears to mark a toxic dose or a test without result, not a measured value. Some doses without a T/C left all or most animals alive at the check, yet need not have been tolerated: the source hardly ever lists a survival T/C far under the control, and the zero likely stands for such cases as well. Survivors were counted at the toxicity check, usually on the fifth day, unless a day is given; later deaths do not show. Schedules are NCI's codes, taken here to give the interval after Q, in days (D) or hours (H), and the number of doses after X. Some entries hold several experiments; the results are listed from low to high. For survival time, the PubChem record calls one and a half times the control and up active, and a quarter to a half above the control has no call in these data; cut-offs in other NCI protocols can differ. Some T/C values carry the count of animals alive at the toxicity check (mostly the fifth day); where none is given, no animal had died by that day.

With `Nc1nc2c(c(=O)[nH]1)N(C=O)C(CNc1ccc(C(=O)N[C@@H](CCC(=O)O)C(=O)O)cc1)CN2` (some centres not stated), for the setting “dose: 1024.0 mg/kg/injection, schedule: Q01DX005 (ip), vehicle: saline”, the survivor count was 1 of 10.

For the compound `CS(=O)(=O)Nc1ccc(Nc2c3ccccc3nc3cc([N+](=O)[O-])ccc23)cc1`, the survivor count runs as follows: (dose: 25.0 mg/kg/injection, schedule: Q04DX003 (ip), vehicle: Klucel (hydroxypropylcellulose) (HPC)) 5 of 6; (dose: 50.0 mg/kg/injection, schedule: Q04DX003 (ip), vehicle: Klucel (hydroxypropylcellulose) (HPC)) 6 of 6; (dose: 75.0 mg/kg/injection, schedule: Q04DX003 (ip), vehicle: Klucel (hydroxypropylcellulose) (HPC)) 6 of 6; under setting [1], 6 of 6; (dose: 100.0 mg/kg/injection, schedule: Q04DX003 (ip), vehicle: saline sonified) 5 of 6.

Take `COc1cc(C[C@H]2c3cc(OC)c(OC)cc3CCN2C)c(Oc2cc3c(cc2OC)-c2c(OC)c(OC)cc4c2[C@H](C3)N(C)CC4)cc1OC`: the survivor count (dose: 100.0 mg/kg/injection, schedule: Q01DX005 (ip), vehicle: Klucel (hydroxypropylcellulose) (HPC)) is listed as 3 of 10; the survivor count (dose: 200.0 mg/kg/injection, schedule: Q01DX005 (ip), vehicle: Klucel (hydroxypropylcellulose) (HPC)) is 1 of 10 and 6 of 10; the survivor count (dose: 400.0 mg/kg/injection, schedule: Q01DX005 (ip), vehicle: Klucel (hydroxypropylcellulose) (HPC)) is 0 of 10 and 6 of 10.

With `O=NN(CCF)C(=O)N[C@H]1CCCC[C@H]1O`, the survivor count is given as 6 of 10 on day 6 under setting [2] and 4 of 10 on day 6 under setting [3].

Take `C[n+]1c2ccccc2nc2c(N)cc(N)cc21`: the T/C (dose: 4.0 mg/kg/injection, schedule: Q01DX005 (ip), vehicle: suspension in saline) is 142 % of control.

Take `O=NN(CCF)C(=O)NC1CCCCC1`: the T/C (dose: 20.4 mg/kg/injection, schedule: Q01DX001 (ip), vehicle: other) is 127 % of control; the T/C (dose: 25.9 mg/kg/injection, schedule: Q01DX001 (ip), vehicle: other) is 129 % of control [9 of 10 alive]; the T/C (dose: 40.7 mg/kg/injection, schedule: Q01DX001 (ip), vehicle: other) is 128 % of control; the T/C (dose: 81.4 mg/kg/injection, schedule: Q01DX001 (ip), vehicle: other) was 128 % of control [9 of 10 alive]. Further, the survivor count (dose: 36.0 mg/kg/injection, schedule: Q01DX001 (ip), vehicle: Klucel (hydroxypropylcellulose) (HPC)) was 6 of 10 on day 6; the survivor count (dose: 72.0 mg/kg/injection, schedule: Q01DX001 (ip), vehicle: other) is 6 of 10; the survivor count (dose: 100.0 mg/kg/injection, schedule: Q01DX001 (ip), vehicle: Klucel (hydroxypropylcellulose) (HPC)) is 2 of 10 on day 6; the survivor count (dose: 120.0 mg/kg/injection, schedule: Q01DX001 (ip), vehicle: other) is listed as 0 of 10; the survivor count (dose: 200.0 mg/kg/injection, schedule: Q01DX001 (ip), vehicle: other) is 0 of 10.

Take `O=NN(CCF)C(=O)NCCO`: the survivor count (dose: 60.0 mg/kg/injection, schedule: Q01DX001 (ip), vehicle: saline) is 2 of 10 on day 6; the survivor count under setting [2] is listed as 6 of 10 on day 6; the survivor count under setting [3] is 2 of 10 on day 6. For the same compound, where the note is “dose: 100.0 mg/kg/injection, schedule: Q01DX001 (ip), vehicle: saline”, the T/C is 126 % of control.

For `COc1cc(NS(C)(=O)=O)ccc1Nc1c2cccc(C)c2nc2c(C)cccc12`, the survivor count was 6 of 6 under setting [1] and 6 of 6 (dose: 200.0 mg/kg/injection, schedule: Q04DX003 (ip), vehicle: Klucel (hydroxypropylcellulose) (HPC)).

In the case of `CCN(CC)CCCC(C)Nc1c2ccc(Cl)cc2nc2ccc(OC)cc12` (configuration not stated), the survivor count by setting is: (dose: 8.0 mg/kg/injection, schedule: Q01DX009 (ip), vehicle: saline with Tween-80) 4 of 10; (dose: 16.0 mg/kg/injection, schedule: Q01DX009 (ip), vehicle: saline with Tween-80) 8 of 10; (dose: 32.0 mg/kg/injection, schedule: Q01DX009 (ip), vehicle: saline with Tween-80) 8 of 10; (dose: 64.0 mg/kg/injection, schedule: Q01DX009 (ip), vehicle: saline with Tween-80) 4 of 10; (dose: 128.0 mg/kg/injection, schedule: Q01DX009 (ip), vehicle: saline with Tween-80) 6 of 10 and 8 of 10; (dose: 256.0 mg/kg/injection, schedule: Q01DX009 (ip), vehicle: saline with Tween-80) 0 of 10.

As to `CCC1=C(c2ccc(OC)cc2)CCC(C(=O)O)C1C` (configuration not stated), the survivor count (dose: 16.0 mg/kg/injection, schedule: Q01DX005 (ip), vehicle: saline with Tween-80) was 10 of 10.

Consider `CC[C@H]1CN2CCc3cc(OC)c(OC)cc3[C@@H]2C[C@@H]1C[C@H]1NCCc2cc(OC)c(OC)cc21`, for which the survivor count (dose: 16.0 mg/kg/injection, schedule: Q01DX005 (ip), vehicle: Klucel (hydroxypropylcellulose) (HPC)) was 2 of 10 and 10 of 10.

Consider `Nc1nncs1`, for which the T/C was 125 % of control (dose: 256.0 mg/kg/injection, schedule: Q01DX005 (ip), vehicle: saline with Tween-80) and 132 % of control (dose: 512.0 mg/kg/injection, schedule: Q01DX005 (ip), vehicle: saline with Tween-80).

With `N=[N+]=CC(=O)CCC(NC(=O)C(CCC(=O)C=[N+]=N)NC(=O)CCC(N)C(=O)O)C(=O)O` (configuration not stated), the T/C (dose: 0.4 mg/kg/injection, schedule: Q01DX005 (ip), vehicle: Klucel (hydroxypropylcellulose) (HPC)) is 130 % of control.

With `COc1cc(NS(C)(=O)=O)ccc1Nc1c2ccccc2nc2ccccc12`, the survivor count by setting is: (dose: 10.0 mg/kg/injection, schedule: Q04DX003 (ip), vehicle: Klucel (hydroxypropylcellulose) (HPC)) 6 of 6; (dose: 20.0 mg/kg/injection, schedule: Q04DX003 (ip), vehicle: Klucel (hydroxypropylcellulose) (HPC)) 6 of 6. Also, the T/C (dose: 20.0 mg/kg/injection, schedule: Q04DX003 (ip), vehicle: saline) is 125 % of control [5 of 6 alive].

For `O=CC(NC(=O)N(CCF)N=O)C(O)C(O)C(O)CO` (configuration not stated), the T/C under setting [2] is 126 % of control [7 of 10 alive on day 6]. Besides, the survivor count under setting [3] is 6 of 10 on day 6.

Consider `Cc1ncc(CNC(=O)N(CCCl)N=O)c(N)n1`, for which the survivor count (dose: 50.0 mg/kg/injection, schedule: Q01DX009 (ip), vehicle: Klucel (hydroxypropylcellulose) (HPC)) is on record as 10 of 10; the survivor count (dose: 100.0 mg/kg/injection, schedule: Q01DX009 (ip), vehicle: Klucel (hydroxypropylcellulose) (HPC)) was 9 of 10; the survivor count (dose: 200.0 mg/kg/injection, schedule: Q01DX009 (ip), vehicle: Klucel (hydroxypropylcellulose) (HPC)) is on record as 3 of 10; the survivor count (dose: 400.0 mg/kg/injection, schedule: Q01DX009 (ip), vehicle: Klucel (hydroxypropylcellulose) (HPC)) was 0 of 10.
